Test results: article PMC9525679, “Inositol hexakisphosphate is required for Integrator function” (Nature Communications, 2022)
Residue numbers refer to the chain shown, from its start. No constants are given. Whether binding was seen depends on the method and setting. In cells and extracts the contact can be indirect. Some entries that bind do so weakly or less than the wild type. For some of these results: Where a sequence is shown, tags or fusion partners need not be part of it.

The chains behind the UniProt entries cited, without tags or fusion partners. Where a name states a change or a piece, a line headed by the entry shows the natural chain unless it says otherwise.
UniProt Q9VAH9: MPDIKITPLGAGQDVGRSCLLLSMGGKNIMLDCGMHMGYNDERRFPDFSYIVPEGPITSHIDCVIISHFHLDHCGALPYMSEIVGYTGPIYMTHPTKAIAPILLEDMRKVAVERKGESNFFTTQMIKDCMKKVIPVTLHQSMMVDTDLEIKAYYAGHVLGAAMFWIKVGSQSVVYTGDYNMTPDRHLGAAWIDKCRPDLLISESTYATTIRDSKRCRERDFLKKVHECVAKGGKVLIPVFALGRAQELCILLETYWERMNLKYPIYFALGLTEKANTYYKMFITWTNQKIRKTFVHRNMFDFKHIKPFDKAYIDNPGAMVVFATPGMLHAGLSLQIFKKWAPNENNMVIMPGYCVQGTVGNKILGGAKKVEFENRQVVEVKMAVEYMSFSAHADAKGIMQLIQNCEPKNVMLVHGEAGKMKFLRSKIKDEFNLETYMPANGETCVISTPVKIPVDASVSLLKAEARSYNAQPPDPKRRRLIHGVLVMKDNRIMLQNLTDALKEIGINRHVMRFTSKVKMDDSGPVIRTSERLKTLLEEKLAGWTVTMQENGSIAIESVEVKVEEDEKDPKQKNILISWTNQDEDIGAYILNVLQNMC
UniProt Q9W1C5: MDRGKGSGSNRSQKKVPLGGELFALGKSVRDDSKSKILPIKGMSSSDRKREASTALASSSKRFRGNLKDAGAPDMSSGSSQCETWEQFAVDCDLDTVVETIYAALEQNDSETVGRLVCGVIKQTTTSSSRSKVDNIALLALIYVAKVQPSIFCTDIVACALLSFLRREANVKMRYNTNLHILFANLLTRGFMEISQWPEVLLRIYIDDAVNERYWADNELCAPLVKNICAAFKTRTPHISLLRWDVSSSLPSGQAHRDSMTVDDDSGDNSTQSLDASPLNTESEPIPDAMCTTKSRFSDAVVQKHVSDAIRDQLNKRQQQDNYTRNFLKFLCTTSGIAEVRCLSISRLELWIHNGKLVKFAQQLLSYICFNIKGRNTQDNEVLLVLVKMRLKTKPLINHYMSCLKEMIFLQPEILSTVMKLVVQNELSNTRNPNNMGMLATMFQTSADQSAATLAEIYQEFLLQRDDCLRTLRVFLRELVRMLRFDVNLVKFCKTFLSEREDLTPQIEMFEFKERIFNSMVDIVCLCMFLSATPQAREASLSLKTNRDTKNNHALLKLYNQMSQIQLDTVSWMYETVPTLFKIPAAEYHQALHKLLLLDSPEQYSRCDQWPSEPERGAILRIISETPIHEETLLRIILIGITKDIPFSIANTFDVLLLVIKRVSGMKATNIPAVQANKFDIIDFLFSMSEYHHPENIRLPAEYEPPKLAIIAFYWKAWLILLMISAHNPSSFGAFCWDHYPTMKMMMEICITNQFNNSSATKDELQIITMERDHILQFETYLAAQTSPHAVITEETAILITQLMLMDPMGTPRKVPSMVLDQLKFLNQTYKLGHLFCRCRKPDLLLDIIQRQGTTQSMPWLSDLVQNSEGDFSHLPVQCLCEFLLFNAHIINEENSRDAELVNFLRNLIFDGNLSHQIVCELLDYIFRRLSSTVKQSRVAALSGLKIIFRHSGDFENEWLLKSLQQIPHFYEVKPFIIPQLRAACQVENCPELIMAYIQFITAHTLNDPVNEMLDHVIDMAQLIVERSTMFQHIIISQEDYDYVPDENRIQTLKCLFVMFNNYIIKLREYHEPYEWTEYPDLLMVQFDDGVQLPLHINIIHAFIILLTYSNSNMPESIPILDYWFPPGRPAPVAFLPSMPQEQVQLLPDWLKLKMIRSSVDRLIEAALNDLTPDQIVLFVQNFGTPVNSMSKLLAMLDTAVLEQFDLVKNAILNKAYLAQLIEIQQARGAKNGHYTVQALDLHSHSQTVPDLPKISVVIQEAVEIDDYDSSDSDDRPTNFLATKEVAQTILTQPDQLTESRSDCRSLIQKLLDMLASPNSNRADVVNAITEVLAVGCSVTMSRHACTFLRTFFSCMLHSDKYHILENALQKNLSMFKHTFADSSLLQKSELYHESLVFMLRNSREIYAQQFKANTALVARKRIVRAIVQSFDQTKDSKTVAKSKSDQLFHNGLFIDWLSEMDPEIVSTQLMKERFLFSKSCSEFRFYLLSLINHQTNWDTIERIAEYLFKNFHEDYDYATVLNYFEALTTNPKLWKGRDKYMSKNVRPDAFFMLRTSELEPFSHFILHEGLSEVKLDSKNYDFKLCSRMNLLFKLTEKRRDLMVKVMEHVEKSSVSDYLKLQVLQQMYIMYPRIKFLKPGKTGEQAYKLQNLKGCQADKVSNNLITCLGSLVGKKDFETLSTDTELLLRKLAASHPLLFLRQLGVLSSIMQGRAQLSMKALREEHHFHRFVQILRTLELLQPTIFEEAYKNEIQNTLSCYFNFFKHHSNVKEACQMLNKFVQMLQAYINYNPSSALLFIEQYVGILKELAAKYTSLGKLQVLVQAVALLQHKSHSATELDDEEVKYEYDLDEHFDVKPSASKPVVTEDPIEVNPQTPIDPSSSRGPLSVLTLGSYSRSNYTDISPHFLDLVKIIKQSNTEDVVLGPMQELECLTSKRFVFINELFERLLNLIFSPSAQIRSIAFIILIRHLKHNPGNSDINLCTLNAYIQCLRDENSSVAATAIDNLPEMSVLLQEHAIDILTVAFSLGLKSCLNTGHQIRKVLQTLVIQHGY

Key:
Assay in all cases: co-IP; anti-Flag M2 affinity agarose with 1 mg nuclear extract of DL1 cells stably expressing FLAG-tagged proteins; 20 mM HEPES pH 7.4, 100 mM KCl, 10% glycerol, 0.1% NP-40; 2 h at 4 °C, five washes; western blot, normalized to FLAG signals
[1] = biological target: FLAG-IntS11-K462E (Drosophila) (Drosophila (D. melanogaster)) (UniProt Q9VAH9)
[2] = biological target: T1, FLAG-IntS9-WT (Drosophila) (Drosophila (D. melanogaster)) (UniProt Q95TS5)
T1 sequence: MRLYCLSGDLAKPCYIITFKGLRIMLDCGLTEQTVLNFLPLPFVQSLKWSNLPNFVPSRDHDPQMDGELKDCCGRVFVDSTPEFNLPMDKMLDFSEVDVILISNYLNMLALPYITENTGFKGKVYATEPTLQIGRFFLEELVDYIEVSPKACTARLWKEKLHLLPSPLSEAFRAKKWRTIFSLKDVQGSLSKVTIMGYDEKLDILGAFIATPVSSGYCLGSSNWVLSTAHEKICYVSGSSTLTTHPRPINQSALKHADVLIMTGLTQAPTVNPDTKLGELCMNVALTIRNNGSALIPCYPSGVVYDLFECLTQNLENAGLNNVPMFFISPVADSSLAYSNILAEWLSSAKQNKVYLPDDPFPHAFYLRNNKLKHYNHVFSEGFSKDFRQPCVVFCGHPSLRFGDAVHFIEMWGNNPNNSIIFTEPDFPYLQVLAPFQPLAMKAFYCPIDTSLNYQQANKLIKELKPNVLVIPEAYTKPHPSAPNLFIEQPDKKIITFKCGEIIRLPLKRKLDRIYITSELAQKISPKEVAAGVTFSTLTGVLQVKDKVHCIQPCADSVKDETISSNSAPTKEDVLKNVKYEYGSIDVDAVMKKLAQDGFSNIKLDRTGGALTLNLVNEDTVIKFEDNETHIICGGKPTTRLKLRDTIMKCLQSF

[3] = biological target: T2, FLAG-IntS9-R2E (Drosophila) (Drosophila (D. melanogaster)) (UniProt Q95TS5)
T2 sequence: T1 sequence with R2E

[4] = biological target: FLAG-IntS11-WT (Drosophila) (Drosophila (D. melanogaster)) (UniProt Q9VAH9)

Measured: binding

IntS1 (Drosophila, endogenous) (from UniProt Q9W1C5 1-2053)
binds: all assays above

IntS11 (Drosophila, endogenous) (from UniProt Q9VAH9 1-597) (enzyme)
binds: [2] | [3]

B1: IntS4 (Drosophila, endogenous) (protein, UniProt Q9W3E1 1-1022)
chain: MALAIKKRVGTYVETVDGSPPVKKLRLQTLAADAKGGKSGKVGNVERKLTALNQLDAYVGNLPAGALVLPTGTPVASTGAPSTGVIGNPPAAATGAPPMTAANSRELLELLVKITDEISYEDVEMGELKEVASKIFQLYQLQERDSDTSIRVKLLELLSGLGCECATEQALTMIIDYFIFLLRKEVSQKVLAQGMMCLFRIGERRKHMLPISYKTQVAHLAKEQLRSGSAHTQKNAMLVIGRFATKMEGERHYVWKLAFYIDSQDSSVRAQALHALLTLGERGSQLPAVLYKRAVEAMKDDYECVRKEALQLVFMLGNRHPDYILPSDRQQEELRMIDAAFSKVCEALCDLSLQIRVLAAELLGGMTAVSREFLHQTLDKKLMSNLRRKRTAHERGARLVASGEWSSGKRWADDAPQEHLDAQSISIIASGACGALIHGLEDEFLEVRTAAVASMCKLALSRPDFAVTSLDFLVDMFNDEIEDVRLKAIYSLTAIAKHIVLREDQLEIMLGSLEDYSVDVREGLHLMLGACRVSTQTCLLMVVQKLLDVLAKYPQDRNSTYACMRKIGQKHPHLVMAVAVHLLYVHPFFETPERDVEDPAYLCVLILVFNAAEHLVPIISLLPTATHRHYAYLRDSMPNLVPQLPIEGASSASATHRIDSAMHQAGSSAEYLQMILSHIEEIFTMTDERLELLQTAQSNLQRLGSIDAGMYGTSNFLETFLAAQIQIEQMQRCASTQRSRVPLKESLAALIRNCLKLQHTFSGLNYGDILQVKQLRLRACALHLVLVVRDRSQSALGPCQMLLQTAGDISEFIKANTKDEEEKPPVVETDMPMKESVSRDAQPDSFTRQLLIKLDGISDPKPGRVFREILPLVQQAPPLALPPANDKIRRCVANILEPCPLQSQDNVIKVTAGLIAAVPFVAEIDNLLESQKADMRIKIKYPDQHMHTVVPKQSDFKPIMTEQGEHKTNVRLRTTILLSHSVWTESSLVEIQLCLAVRPGSELELCKPAKVLFAPKPVRRGI
binds: all assays above

B2: IntS8 (Drosophila, endogenous) (protein, UniProt A1ZAK1 1-1007)
chain: MDDPLKPKPVPLAAETVLWFEFLLDPHKITQHLQRPHPEPSAMELIVQFISMTPNTAQESVGTPGSDLQNLNQTPSNSGPIPGVVGGAPAPTTPTASGGVGMPHSPQRPAEKGLQLNRKQLALKILELKVATWLKWDLDALEKNLPVIMQLALLRDLCTISYGCSLSIPLPNDFDARISAAGNERAARFALTIYHRMLLRMQLIKEQALKAPRPQNTMYQTVDQLQQFLDTPTQPSIEYLQQLCASTKPFYIFHYDSFVPLRCDDIGNGQNYDVMHLITPQELRAQLHYELAQYYLYTKQYVLAREAAAACNTNLQAIPPQTTLYYCHIRPSELEGLLQACGISAEEQSLLEKFQQSLLNNYTDIVSILRMDNRRREIPFISRRQVELDIEGSISTGILKETVQLQLQVAALNVVRNIFEWGSIFGSVEYFEKYRELDCLPPLVEALQEMLPHCTFKEQAALKHFLIDCLLHQGGQSRQLLQTVRGFGLFSSDELQDIDEQMLQATPPVPTNSLASLSDWMCHSKMSRVDVGALERQLISCTNANTVRILLVKLCATAPGKPLWAINPSWDVPQPLKTLIMAMPVSFLQDFSYVLLGKARELATRGNYIDAVSMLSVLKSENQRQEMAANVQLMCKLITWEILHIQITQCLEEWHQKPLDLQSLGGRCKQCLGALQAGDSIVPRPDILESCAIMLLNLTEFPPLLYLDKRAGPLELPLAFAATFIEMEKMKGPKKVCRDAWELMLSMFLNVPKRGSSGVGGISSLQAFLQRIRHQSVFGLAISMIGKVHNILKDDPNHDLSCEYMQLWPTSINNPVSYSLRSVCETLQWLLSEALSYYPQTISWLKMKGDLDLAIGNNESAMRCYVNALVTGTDYCTMPLQRNVADDYVIRKMIRCAANLGCHMQATVLCQFLDEIDYGIVFKNLSEKSSNFTDAMDAYYSCIWDTTLLEFIVNLHAKRGEHSRKLEAISMMGTLELNANNNEEIKRESAMVRKSRFLRALAKQYLL
binds: all assays above

B3: IntS9 (Drosophila, endogenous) (protein, UniProt Q95TS5 1-654)
chain: T1 sequence
binds: [1] | [4]
